Measured data: PubChem BioAssay AID1159578 (Peter MacCallum Cancer Centre, 2015)
The whole screen tested about 18,000 reagents; this is an unselected part. About 1,030 of all reagents (5.7%) count as active. 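Inactive calls also include pools with fewer than 3300 nuclei, whose migration was not assessed.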 Raw values vary from plate to plate and are shown uncorrected.

- Purpose: 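Genome-wide hunt for genes controlling movement of lymphatic endothelial cells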 (primary screen)
- Cell system: human lymphatic endothelial cells
- Knock-down reagent: siRNA pool against human genes, 40 nM
- Time to read-out: 48 h after transfection
- Detection: 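High-content imaging of dye-stained cells in a scratch assay measures filled wound area and nuclei per well; duplicate means given as ratio to mock and robust z-score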
- Reading the numbers: migration robust z-score: higher = faster migration into the scratch; migration relative to mock: higher = more scratch area covered than mock; nuclei per well: higher = more cells in the well
- Rule for the call: 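Pools averaging fewer than 3300 nuclei are never called; remaining pools count as changed when migration robust z lies outside -2 to 2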
- Calls: active = migration changed; inactive = no migration change, or too few cells

Target gene	migration robust z-score	migration class with cell-count check	migration relative to mock	nuclei per well, duplicate mean	Call
ARHGEF10 (GeneID 9639)	-0.05	migration z between -2 and 2; enough cells	0.8	6366	inactive
CD300LD-AS1 (GeneID 146723)	-0.71	migration z between -2 and 2; enough cells	0.7	5677	inactive
MTMR4 (GeneID 9110)	-0.8	migration z between -2 and 2; enough cells	0.65	5663	inactive
ODAM (GeneID 54959)	-1.27	migration z between -2 and 2; enough cells	0.55	6701	inactive
PIAS1 (GeneID 8554)	0.13	migration z between -2 and 2; enough cells	0.83	6161	inactive
ISY1 (GeneID 57461)	-1.58	migration z between -2 and 2; enough cells	0.48	6178	inactive
ZNF148 (GeneID 7707)	-0.11	migration z between -2 and 2; enough cells	0.78	5246	inactive
ALOX12 (GeneID 239)	-0.13	migration z between -2 and 2; enough cells	0.78	6068	inactive
ZNF16 (GeneID 7564)	-1.18	migration z between -2 and 2; enough cells	0.58	5800	inactive
RNF187 (GeneID 149603)	0.64	migration z between -2 and 2; enough cells	0.93	6652	inactive
DVL2 (GeneID 1856)	0.18	migration z between -2 and 2; enough cells	0.94	5762	inactive
PPP1R27 (GeneID 116729)	1.02	migration z between -2 and 2; enough cells	1.15	5810	inactive
YBX2 (GeneID 51087)	-0.36	migration z between -2 and 2; enough cells	0.74	5992	inactive
B3GALT5 (GeneID 10317)	-1.03	migration z between -2 and 2; enough cells	0.6	3574	inactive
ISLR (GeneID 3671)	-0.66	migration z between -2 and 2; enough cells	0.72	4596	inactive
IFIT3 (GeneID 3437)	-2.34	migration z below -2; enough cells	0.29	3474	active
ITGB4 (GeneID 3691)	0.96	migration z between -2 and 2; enough cells	0.99	4426	inactive
SAMHD1 (GeneID 25939)	0.18	migration z between -2 and 2; enough cells	0.84	5648	inactive
LCT (GeneID 3938)	0.44	migration z between -2 and 2; enough cells	0.89	5690	inactive
TEX56P (GeneID 404220)	0.81	migration z between -2 and 2; enough cells	1.1	4695	inactive
CACHD1 (GeneID 57685)	0.64	migration z between -2 and 2; enough cells	1.05	6519	inactive
WWOX (GeneID 51741)	0.52	migration z between -2 and 2; enough cells	0.9	5934	inactive
DHCR7 (GeneID 1717)	0.18	migration z between -2 and 2; enough cells	0.84	4399	inactive
MXRA5 (GeneID 25878)	0.88	migration z between -2 and 2; enough cells	1.12	7246	inactive
EPPIN (GeneID 57119)	0.96	migration z between -2 and 2; enough cells	1.14	5915	inactive
TGIF2LY (GeneID 90655)	0.62	migration z between -2 and 2; enough cells	0.92	5233	inactive
PPM1B (GeneID 5495)	0.11	migration z between -2 and 2; enough cells	0.82	5722	inactive
RNF168 (GeneID 165918)	-0.72	migration z between -2 and 2; enough cells	0.66	4488	inactive
ATF5 (GeneID 22809)	-0.08	migration z between -2 and 2; enough cells	0.79	6312	inactive
FOXK1 (GeneID 221937)	0.14	migration z between -2 and 2; enough cells	0.92	5843	inactive
CAMKV (GeneID 79012)	-1.17	migration z between -2 and 2; enough cells	0.58	3388	inactive
VPS25 (GeneID 84313)	1.87	migration z between -2 and 2; enough cells	1.37	6935	inactive
RCSD1 (GeneID 92241)	-0.12	migration z between -2 and 2; enough cells	0.86	5643	inactive
TFB1M (GeneID 51106)	1.19	migration z between -2 and 2; enough cells	1.04	5891	inactive
ABCB11 (GeneID 8647)	0.83	migration z between -2 and 2; enough cells	0.96	4203	inactive
SPTY2D1 (GeneID 144108)	-0.74	migration z between -2 and 2; enough cells	0.69	5771	inactive
SFXN1 (GeneID 94081)	-0.42	migration z between -2 and 2; enough cells	0.72	5647	inactive
SCNN1B (GeneID 6338)	-1.48	migration z between -2 and 2; enough cells	0.52	3934	inactive
LRRC32 (GeneID 2615)	-0.22	migration z between -2 and 2; enough cells	0.83	5392	inactive
HDAC9 (GeneID 9734)	-0.23	migration z between -2 and 2; enough cells	0.82	5642	inactive
VBP1 (GeneID 7411)	0.26	migration z between -2 and 2; enough cells	0.96	6015	inactive
NAT8B (GeneID 51471)	-0.8	migration z between -2 and 2; enough cells	0.65	5724	inactive
TRIM63 (GeneID 84676)	-0.28	migration z between -2 and 2; enough cells	0.75	5336	inactive
FAM107A (GeneID 11170)	-1.15	under 3300 nuclei; migration not judged	0.59	3088	inactive
MINDY3 (GeneID 80013)	0.38	migration z between -2 and 2; enough cells	0.98	7092	inactive
MIS18A (GeneID 54069)	2.69	migration z above 2; enough cells	1.58	6282	active
CHMP2B (GeneID 25978)	-1.79	migration z between -2 and 2; enough cells	0.42	6322	inactive
ENKUR (GeneID 219670)	1.62	migration z between -2 and 2; enough cells	1.31	6590	inactive
INSL6 (GeneID 11172)	0.36	migration z between -2 and 2; enough cells	0.98	4602	inactive
ABHD3 (GeneID 171586)	-0.58	migration z between -2 and 2; enough cells	0.74	6209	inactive
HK3 (GeneID 3101)	1.15	migration z between -2 and 2; enough cells	1.02	5821	inactive
MAGEH1 (GeneID 28986)	0.98	migration z between -2 and 2; enough cells	1.14	4356	inactive
KIAA1143 (GeneID 57456)	-0.18	migration z between -2 and 2; enough cells	0.84	5746	inactive
CHST10 (GeneID 9486)	0.08	migration z between -2 and 2; enough cells	0.82	5460	inactive
P4HA3 (GeneID 283208)	-0.2	migration z between -2 and 2; enough cells	0.76	4930	inactive
CTDNEP1 (GeneID 23399)	-0.5	migration z between -2 and 2; enough cells	0.76	5956	inactive
AKAP3 (GeneID 10566)	0.68	migration z between -2 and 2; enough cells	0.94	5662	inactive

5 consecutive records from above, quoted:
Target gene	migration robust z-score	migration class with cell-count check	migration relative to mock	nuclei per well, duplicate mean	Call
LCT (GeneID 3938)	0.44	migration z between -2 and 2; enough cells	0.89	5690	inactive
TEX56P (GeneID 404220)	0.81	migration z between -2 and 2; enough cells	1.1	4695	inactive
CACHD1 (GeneID 57685)	0.64	migration z between -2 and 2; enough cells	1.05	6519	inactive
WWOX (GeneID 51741)	0.52	migration z between -2 and 2; enough cells	0.9	5934	inactive
DHCR7 (GeneID 1717)	0.18	migration z between -2 and 2; enough cells	0.84	4399	inactive
